The source of these data is the supplement of paper PMC10735217.

SMILES strings stand for the structures. Structures can show the parent of a compound that is named as a salt. The list shows a part of the results. This data set is noisy: repeats of one test often differ as much as different tests do.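 The human kidney-derived cells carry a stably integrated construct of eight TEAD-binding elements driving luciferase, read by luminescence in a drug-repurposing library screen. A compound counts as a hit when its signal is more than five robust Z scores above the plate mean.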

This test relates to HEK293A TEAD-LUC reporter. The experiment in a line: TEAD-luciferase reporter activity (YAP activation), robust Z score vs plate; higher = stronger YAP/TEAD activation. The conditions noted are these: 24 h.

In the case of `O=c1cc(N2CCOCC2)oc2c(-c3ccccc3)cccc12`, the TEAD-luciferase reporter activity by setting is: (compound concentration: 200 nM) inactive: -2.15; (compound concentration: 10 uM) inactive: -0.85.

`COc1ccc(C(=O)Nc2c(Cl)c[n+]([O-])cc2Cl)c2ccc(C(F)(F)F)nc12`: the TEAD-luciferase reporter activity by setting is: (compound concentration: 200 nM) inactive: -0.177; (compound concentration: 2 uM) inactive: -0.888; (compound concentration: 10 uM) inactive: 1.1.

On to `CNCCC=C1c2ccccc2CCc2ccccc21`, for which the TEAD-luciferase reporter activity (compound concentration: 200 nM) was inactive: -0.801 and the TEAD-luciferase reporter activity (compound concentration: 10 uM) was inactive: -1.22.

Turning to `CNCCC=C1c2ccccc2CCc2ccccc21` [Nortriptyline hydrochloride], the TEAD-luciferase reporter activity (compound concentration: 2 uM) was inactive: -1.75.

Consider `CCc1nc2ccc(NC(=O)N(C)C(C)C)cc2c(=O)n1Cc1ccc(-c2ccccc2S(=O)(=O)NC(=O)OCCC2CC2)cc1F`, for which the TEAD-luciferase reporter activity (compound concentration: 200 nM) was inactive: -1.74, the TEAD-luciferase reporter activity (compound concentration: 2 uM) is inactive: 0.973 and the TEAD-luciferase reporter activity (compound concentration: 10 uM) is active: 13.3.

Turning to `CS(=O)(=O)Nc1ccc2oc3c(OC(F)F)ccc(C(=O)Nc4c(Cl)cncc4Cl)c3c2c1` [Oglemilast], the TEAD-luciferase reporter activity by setting is: (compound concentration: 200 nM) inactive: 1.8; (compound concentration: 2 uM) inactive: 0.758; (compound concentration: 10 uM) inactive: -0.146.

As to `O=c1[nH]c(=S)n(C[C@H]2CCCO2)c2[nH]cnc12`, the TEAD-luciferase reporter activity by setting is: (compound concentration: 200 nM) inactive: -0.467; (compound concentration: 2 uM) inactive: -0.217; (compound concentration: 10 uM) inactive: -0.773.

In the case of `CC(C)(Cc1ccccc1)NCC(O)c1ccc(O)c(NS(C)(=O)=O)c1` (centres undefined) [zinterol], the TEAD-luciferase reporter activity was inactive: -0.509 (compound concentration: 200 nM), inactive: -0.137 (compound concentration: 2 uM) and inactive: -0.699 (compound concentration: 10 uM).

Turning to `CCN(CC)CCOc1ccc([C@H]2C[C@]3(C)[C@@H](O)CC[C@H]3[C@@H]3CCc4c(ccc(O)c4Cl)[C@H]32)cc1`, the TEAD-luciferase reporter activity (compound concentration: 200 nM) was inactive: -0.938, the TEAD-luciferase reporter activity (compound concentration: 2 uM) is inactive: -1.64 and the TEAD-luciferase reporter activity (compound concentration: 10 uM) was inactive: 3.

Take `C[C@]12CCC3=C4CCC(=O)C=C4CC[C@H]3[C@@H]1CC[C@@]2(O)CC#N` [Dienogest]: the TEAD-luciferase reporter activity (compound concentration: 200 nM) was inactive: -0.71, the TEAD-luciferase reporter activity (compound concentration: 2 uM) is inactive: -0.579 and the TEAD-luciferase reporter activity (compound concentration: 10 uM) was inactive: -0.309.

As for `O=C1c2ccccc2-n2c1nc1ccccc1c2=O` [Tryptanthrin], the TEAD-luciferase reporter activity (compound concentration: 200 nM) was inactive: 0.0524, the TEAD-luciferase reporter activity (compound concentration: 2 uM) was inactive: -0.251 and the TEAD-luciferase reporter activity (compound concentration: 10 uM) is inactive: 4.35.

`COc1ccccc1N1CCN(C(=O)c2cccc3c(=O)c(C)c(-c4ccccc4)oc23)CC1`: the TEAD-luciferase reporter activity reads like this: (compound concentration: 200 nM) inactive: -1.99; (compound concentration: 2 uM) inactive: -0.238; (compound concentration: 10 uM) inactive: -2.97.

On to `O=C(O)c1cccc(C[C@@H]2COc3ccc(OCc4nc5cc(F)ccc5s4)cc3[C@@H]2O)c1`, for which the TEAD-luciferase reporter activity is inactive: -0.202 (compound concentration: 200 nM), inactive: -0.0031 (compound concentration: 2 uM) and inactive: 3.08 (compound concentration: 10 uM).

Take `CCNCc1cncc(-c2ccc3c(c2)/C(=C2/N=c4cc(F)cc(F)c4=N2)NN3)c1C`: the TEAD-luciferase reporter activity is inactive: -1.95 (compound concentration: 200 nM), inactive: -2.58 (compound concentration: 2 uM) and inactive: 0.298 (compound concentration: 10 uM).

For `COc1ccc(C(Cl)=C(c2ccc(OC)cc2)c2ccc(OC)cc2)cc1`, the TEAD-luciferase reporter activity is, setting by setting: (compound concentration: 200 nM) inactive: -1.61; (compound concentration: 2 uM) inactive: 0.0303; (compound concentration: 10 uM) inactive: -0.693.

Consider `N[C@H]1CCN(c2nc3c(cc2F)c(=O)c(C(=O)O)cn3C2CC2)C1`, for which the TEAD-luciferase reporter activity (compound concentration: 200 nM) is inactive: -0.853, the TEAD-luciferase reporter activity (compound concentration: 2 uM) is inactive: -1.05 and the TEAD-luciferase reporter activity (compound concentration: 10 uM) was inactive: -0.692.

Consider `COCCOCCOCCOCCOC(=O)OC[n+]1ccc(N/C(=N/C#N)NCCCCCCOc2ccc(Cl)cc2)cc1` [Teglarinad chloride], for which the TEAD-luciferase reporter activity reads like this: (compound concentration: 200 nM) inactive: 2.42; (compound concentration: 2 uM) inactive: 4.36; (compound concentration: 10 uM) active: 10.8.

Consider `O=C(Nc1cc(C(F)(F)F)cc(C(F)(F)F)c1)Nc1cc(Br)ccc1-c1nn[nH]n1`, for which the TEAD-luciferase reporter activity by setting is: (compound concentration: 200 nM) inactive: -1.35; (compound concentration: 2 uM) inactive: -0.319; (compound concentration: 10 uM) inactive: 3.69.

Regarding `Nc1nc(Nc2ccc3c(c2)CC[C@@H](N2CCCC2)CC3)nn1-c1cc2c(nn1)-c1ccccc1CCC2`, the TEAD-luciferase reporter activity runs as follows: (compound concentration: 200 nM) inactive: -1.43; (compound concentration: 2 uM) inactive: -1.26; (compound concentration: 10 uM) inactive: 1.52.

Turning to `Cc1cc(NS(=O)(=O)c2ccc(C(C)(C)C)c(F)c2)n(-c2ccc(N)c3ncccc23)n1`, the TEAD-luciferase reporter activity reads like this: (compound concentration: 200 nM) inactive: -0.81; (compound concentration: 2 uM) inactive: -0.139; (compound concentration: 10 uM) inactive: -0.552.

Take `O=C(Nc1ccc(Cl)cn1)[C@H]1CN(CC(F)F)C[C@@H]1C(=O)Nc1ccc(-n2ccccc2=O)cc1F`: the TEAD-luciferase reporter activity is inactive: -0.325 (compound concentration: 200 nM), inactive: -0.306 (compound concentration: 2 uM) and inactive: -0.0372 (compound concentration: 10 uM).

In the case of `CC(=O)CC(C)(C)c1c(O)c2ccccc2oc1=O`, the TEAD-luciferase reporter activity reads like this: (compound concentration: 200 nM) inactive: 2.9; (compound concentration: 2 uM) inactive: -1.39; (compound concentration: 10 uM) inactive: -0.64.

Regarding `COc1cc2cc(c1Cl)N(C)C(=O)C[C@H](OC(=O)[C@H](C)N(C)C(C)=O)[C@]1(C)O[C@H]1[C@H](C)[C@@H]1C[C@@](O)(NC(=O)O1)[C@H](OC)/C=C\C=C(\C)C2`, the TEAD-luciferase reporter activity reads like this: (compound concentration: 200 nM) inactive: 2.77; (compound concentration: 2 uM) inactive: 3.99; (compound concentration: 10 uM) active: 5.13.

On to `COc1cc(-c2cc(=O)c3cc(OCC(=O)O)ccc3o2)cc(OC)c1OC`, for which the TEAD-luciferase reporter activity (compound concentration: 200 nM) was inactive: -0.209, the TEAD-luciferase reporter activity (compound concentration: 2 uM) was inactive: -1.74 and the TEAD-luciferase reporter activity (compound concentration: 10 uM) was inactive: -1.25.

As to `CN(C)CCNc1ccc2c3c(nn2CCNCCO)-c2cnccc2C(=O)c13`, the TEAD-luciferase reporter activity reads like this: (compound concentration: 200 nM) inactive: -1.3; (compound concentration: 2 uM) inactive: 0.723; (compound concentration: 10 uM) inactive: -1.88.

Take `Cc1nc2c([nH]1)-c1ccccc1N(C(=O)c1ccc(NC(=O)c3ccccc3-c3ccccc3)cc1)CC2` [conivaptan hydrochloride]: the TEAD-luciferase reporter activity (compound concentration: 200 nM) is inactive: -0.152, the TEAD-luciferase reporter activity (compound concentration: 2 uM) is inactive: -0.196 and the TEAD-luciferase reporter activity (compound concentration: 10 uM) was inactive: -0.592.
